# Assay results: the supplement of paper PMC8728848
# The list shows a part of the results.
# What was measured:
# Assay in all cases: glycan array binding signal (z-score within array); higher = stronger binding
# Details in all cases: glycan notation: IUPAC condensed, linker removed
# [1] = molecular target: GlcNAc(b1-2)[GlcNAc(b1-4)]Man(a1-3)[GlcNAc(b1-4)][GlcNAc(b1-2)Man(a1-6)]Man(b1-4)GlcNAc(b1-4)GlcNAc
# How it was run: (§1)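 From the Consortium for Functional Glycomics database, 3228 arrays were curated, keeping only those whose protein sequence was available. Binding is given as a within-array Z-score averaged across arrays sharing a protein sequence and across linkers. Negative Z-scores can be read as non-binding.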
# [2] = molecular target: GlcNAc(b1-2)[GlcNAc(b1-4)]Man(a1-3)[GlcNAc(b1-4)][GlcNAc(b1-2)[GlcNAc(b1-6)]Man(a1-6)]Man(b1-4)GlcNAc(b1-4)GlcNAc
# How it was run: as §1
# [3] = molecular target: GlcNAc(b1-2)[GlcNAc(b1-4)]Man(a1-3)[GlcNAc(b1-4)][GlcNAc(b1-2)[GlcNAc(b1-6)]Man(a1-6)]Man(b1-4)GlcNAc(b1-4)[Fuc(a1-6)]GlcNAc
# How it was run: as §1
# [4] = molecular target: GlcNAc(b1-2)[GlcNAc(b1-6)]Man(a1-6)[GlcNAc(b1-2)Man(a1-3)]Man(b1-4)GlcNAc(b1-4)GlcNAc
# How it was run: as §1
# [5] = molecular target: GlcNAc(b1-2)[GlcNAc(b1-6)]Man(a1-6)[GlcNAc(b1-2)Man(a1-3)]Man(b1-4)GlcNAc(b1-4)[Fuc(a1-6)]GlcNAc
# How it was run: as §1
# [6] = molecular target: GlcNAc(b1-2)[GlcNAc(b1-6)]Man(a1-6)[GlcNAc(b1-4)][GlcNAc(b1-2)Man(a1-3)]Man(b1-4)GlcNAc(b1-4)GlcNAc
# How it was run: as §1
# [7] = molecular target: GlcNAc(b1-3)Fuc
# How it was run: as §1
# [8] = molecular target: GlcNAc(b1-3)Gal
# How it was run: as §1
# [9] = molecular target: GlcNAc(b1-3)Gal(b1-3)GalNAc
# How it was run: as §1
# [10] = molecular target: GlcNAc(b1-3)Gal(b1-4)Glc
# How it was run: as §1
# [11] = molecular target: GlcNAc(b1-3)Gal(b1-4)GlcNAc
# How it was run: as §1
# [12] = molecular target: GlcNAc(b1-3)Gal(b1-4)GlcNAc(b1-2)Man(a1-3)[GlcNAc(b1-3)Gal(b1-4)GlcNAc(b1-2)Man(a1-6)]Man(b1-4)GlcNAc(b1-4)GlcNAc
# How it was run: as §1
# [13] = molecular target: GlcNAc(b1-3)Gal(b1-4)GlcNAc(b1-2)Man(a1-3)[GlcNAc(b1-3)Gal(b1-4)GlcNAc(b1-2)Man(a1-6)]Man(b1-4)GlcNAc(b1-4)[Fuc(a1-6)]GlcNAc
# How it was run: as §1
# [14] = molecular target: GlcNAc(b1-3)Gal(b1-4)GlcNAc(b1-2)[GlcNAc(b1-3)Gal(b1-4)GlcNAc(b1-6)]Man(a1-6)[GlcNAc(b1-3)Gal(b1-4)GlcNAc(b1-2)Man(a1-3)]Man(b1-4)GlcNAc(b1-4)GlcNAc
# How it was run: as §1
# [15] = molecular target: GlcNAc(b1-3)Gal(b1-4)GlcNAc(b1-3)Gal(b1-4)GlcNAc
# How it was run: as §1
# [16] = molecular target: GlcNAc(b1-3)Gal(b1-4)GlcNAc(b1-3)Gal(b1-4)GlcNAc(b1-2)Man(a1-3)[GlcNAc(b1-3)Gal(b1-4)GlcNAc(b1-3)Gal(b1-4)GlcNAc(b1-2)Man(a1-6)]Man(b1-4)GlcNAc(b1-4)GlcNAc
# How it was run: as §1
# [17] = molecular target: GlcNAc(b1-3)Gal(b1-4)GlcNAc(b1-3)Gal(b1-4)GlcNAc(b1-2)Man(a1-3)[GlcNAc(b1-3)Gal(b1-4)GlcNAc(b1-3)Gal(b1-4)GlcNAc(b1-2)Man(a1-6)]Man(b1-4)GlcNAc(b1-4)[Fuc(a1-6)]GlcNAc
# How it was run: as §1
# [18] = molecular target: GlcNAc(b1-3)Gal(b1-4)GlcNAc(b1-3)Gal(b1-4)GlcNAc(b1-2)[GlcNAc(b1-3)Gal(b1-4)GlcNAc(b1-3)Gal(b1-4)GlcNAc(b1-6)]Man(a1-6)[GlcNAc(b1-3)Gal(b1-4)GlcNAc(b1-3)Gal(b1-4)GlcNAc(b1-2)Man(a1-3)]Man(b1-4)GlcNAc(b1-4)[Fuc(a1-6)]GlcNAc
# How it was run: as §1
# [19] = molecular target: GlcNAc(b1-3)Gal(b1-4)GlcNAc(b1-3)Gal(b1-4)GlcNAc(b1-3)Gal(b1-4)GlcNAc(b1-2)Man(a1-3)[GlcNAc(b1-3)Gal(b1-4)GlcNAc(b1-3)Gal(b1-4)GlcNAc(b1-3)Gal(b1-4)GlcNAc(b1-2)Man(a1-6)]Man(b1-4)GlcNAc(b1-4)GlcNAc
# How it was run: as §1
# [20] = molecular target: GlcNAc(b1-3)Gal(b1-4)GlcNAc(b1-3)Gal(b1-4)GlcNAc(b1-3)Gal(b1-4)GlcNAc(b1-2)Man(a1-3)[GlcNAc(b1-3)Gal(b1-4)GlcNAc(b1-3)Gal(b1-4)GlcNAc(b1-3)Gal(b1-4)GlcNAc(b1-2)Man(a1-6)]Man(b1-4)GlcNAc(b1-4)[Fuc(a1-6)]GlcNAc
# How it was run: as §1
# [21] = molecular target: GlcNAc(b1-3)Gal(b1-4)GlcNAc(b1-3)Gal(b1-4)GlcNAc(b1-3)Gal(b1-4)GlcNAc(b1-2)[GlcNAc(b1-3)Gal(b1-4)GlcNAc(b1-3)Gal(b1-4)GlcNAc(b1-3)Gal(b1-4)GlcNAc(b1-6)]Man(a1-6)[GlcNAc(b1-3)Gal(b1-4)GlcNAc(b1-3)Gal(b1-4)GlcNAc(b1-3)Gal(b1-4)GlcNAc(b1-2)Man(a1-3)]Man(b1-4)GlcNAc(b1-4)[Fuc(a1-6)]GlcNAc
# How it was run: as §1
# [22] = molecular target: GlcNAc(b1-3)Gal(b1-4)GlcNAc(b1-3)Gal(b1-4)GlcNAc(b1-3)Gal(b1-4)GlcNAc(b1-3)Gal(b1-4)GlcNAc(b1-2)Man(a1-3)[GlcNAc(b1-3)Gal(b1-4)GlcNAc(b1-3)Gal(b1-4)GlcNAc(b1-3)Gal(b1-4)GlcNAc(b1-3)Gal(b1-4)GlcNAc(b1-2)Man(a1-6)]Man(b1-4)GlcNAc(b1-4)GlcNAc
# How it was run: as §1
# [23] = molecular target: GlcNAc(b1-3)Gal(b1-4)GlcNAc(b1-3)Gal(b1-4)GlcNAc(b1-3)Gal(b1-4)GlcNAc(b1-3)Gal(b1-4)GlcNAc(b1-2)Man(a1-3)[GlcNAc(b1-3)Gal(b1-4)GlcNAc(b1-3)Gal(b1-4)GlcNAc(b1-3)Gal(b1-4)GlcNAc(b1-3)Gal(b1-4)GlcNAc(b1-2)Man(a1-6)]Man(b1-4)GlcNAc(b1-4)[Fuc(a1-6)]GlcNAc
# How it was run: as §1
# [24] = molecular target: GlcNAc(b1-3)Gal(b1-4)GlcNAc(b1-3)Gal(b1-4)GlcNAc(b1-3)Gal(b1-4)GlcNAc(b1-3)Gal(b1-4)GlcNAc(b1-2)[GlcNAc(b1-3)Gal(b1-4)GlcNAc(b1-3)Gal(b1-4)GlcNAc(b1-3)Gal(b1-4)GlcNAc(b1-3)Gal(b1-4)GlcNAc(b1-6)]Man(a1-6)[GlcNAc(b1-3)Gal(b1-4)GlcNAc(b1-3)Gal(b1-4)GlcNAc(b1-3)Gal(b1-4)GlcNAc(b1-3)Gal(b1-4)GlcNAc(b1-2)Man(a1-3)]Man(b1-4)GlcNAc(b1-4)[Fuc(a1-6)]GlcNAc
# How it was run: as §1
# [25] = molecular target: GlcNAc(b1-3)Gal(b1-4)GlcNAc(b1-3)Gal(b1-4)GlcNAc(b1-3)GalNAc
# How it was run: as §1
# [26] = molecular target: GlcNAc(b1-3)Gal(b1-4)GlcNAc(b1-3)GalNAc
# How it was run: as §1
# [27] = molecular target: GlcNAc(b1-3)Gal(b1-4)GlcNAc(b1-3)[GlcNAc(b1-3)Gal(b1-4)GlcNAc(b1-3)]GalNAc
# How it was run: as §1
# [28] = molecular target: GlcNAc(b1-3)Gal(b1-4)GlcNAc(b1-6)[Gal(b1-3)]GalNAc
# How it was run: as §1
# [29] = molecular target: GlcNAc(b1-3)Gal(b1-4)GlcNAc(b1-6)[GlcNAc(b1-3)Gal(b1-3)]GalNAc
# How it was run: as §1
# [30] = molecular target: GlcNAc(b1-3)Gal(b1-4)GlcNAc(b1-6)[GlcNAc(b1-3)]Gal(b1-4)GlcNAc
# How it was run: as §1
# [31] = molecular target: GlcNAc(b1-3)GalNAc
# How it was run: as §1
# [32] = molecular target: GlcNAc(b1-3)Man
# How it was run: as §1
# [33] = molecular target: GlcNAc(b1-3)[GlcNAc(b1-4)][GlcNAc(b1-6)]GlcNAc
# How it was run: as §1
# [34] = molecular target: GlcNAc(b1-3)[GlcNAc(b1-6)]Gal(b1-4)GlcNAc
# How it was run: as §1
# [35] = molecular target: GlcNAc(b1-3)[GlcNAc(b1-6)]GalNAc
# How it was run: as §1
# [36] = molecular target: GlcNAc(b1-4)Gal(b1-4)GlcNAc
# How it was run: as §1
# [37] = molecular target: GlcNAc(b1-4)GlcNAc
# How it was run: as §1
# [38] = molecular target: GlcNAc(b1-4)GlcNAc(b1-4)GlcNAc
# How it was run: as §1
binder,measurement,setting,value
SP15308B-bot-339-22-339 (Bacteroides ovatus) (protein) NEWEDEQYEQYVSFKAPIASGSDGVTTIYVRYKDNGKVTYQLPIIVSGSTVNSQDRDIHIAVDKDTLKTLNIERFSLYRPELWYTEMEEDKYEFPETVHIPAGSCVELLNIDFNLQDIDMLEKWVLPLTIVDDGSYAYQSHPRKNYAKALLKVVPFNNYSGSYTASSMKVYTYINGKPDTNARTTDKRTGYVVDNNSIFFYAGLINEDMDKDMRKKYKINVHFKEDGTLDMKQDDPSNEMEFELIGTPTYSSTSVMDATRPYLERRYVQIMFEYDFQDFTYGGSGTEVIPIKYRVAGSMTLLRNINTQIPDEDQQIEW,glycan array binding signal (z-score),[1],-0.293
same,glycan array binding signal (z-score),[2],-0.495
same,glycan array binding signal (z-score),[3],-0.263
same,glycan array binding signal (z-score),[4],-0.509
same,glycan array binding signal (z-score),[5],-0.039
same,glycan array binding signal (z-score),[6],0.02
same,glycan array binding signal (z-score),[7],0.004
same,glycan array binding signal (z-score),[8],-0.263
same,glycan array binding signal (z-score),[9],-0.117
same,glycan array binding signal (z-score),[10],0.003
same,glycan array binding signal (z-score),[11],-0.398
same,glycan array binding signal (z-score),[12],-0.302
same,glycan array binding signal (z-score),[13],0.423
same,glycan array binding signal (z-score),[14],0.517
same,glycan array binding signal (z-score),[15],-0.305
same,glycan array binding signal (z-score),[16],0.767
same,glycan array binding signal (z-score),[17],0.356
same,glycan array binding signal (z-score),[18],0.672
same,glycan array binding signal (z-score),[19],0.302
same,glycan array binding signal (z-score),[20],0.096
same,glycan array binding signal (z-score),[21],0.005
same,glycan array binding signal (z-score),[22],0.324
same,glycan array binding signal (z-score),[23],0.641
same,glycan array binding signal (z-score),[24],0.133
same,glycan array binding signal (z-score),[25],0.086
same,glycan array binding signal (z-score),[26],-0.584
same,glycan array binding signal (z-score),[27],0.108
same,glycan array binding signal (z-score),[28],-0.502
same,glycan array binding signal (z-score),[29],-0.386
same,glycan array binding signal (z-score),[30],0.003
same,glycan array binding signal (z-score),[31],-0.376
same,glycan array binding signal (z-score),[32],-0.654
same,glycan array binding signal (z-score),[33],-0.024
same,glycan array binding signal (z-score),[34],-0.22
same,glycan array binding signal (z-score),[35],-0.225
same,glycan array binding signal (z-score),[36],-0.272
same,glycan array binding signal (z-score),[37],-0.427
same,glycan array binding signal (z-score),[38],-0.544

# Two neighbouring records already listed, for reference:
binder,measurement,setting,value
SP15308B-bot-339-22-339 (Bacteroides ovatus) (protein) NEWEDEQYEQYVSFKAPIASGSDGVTTIYVRYKDNGKVTYQLPIIVSGSTVNSQDRDIHIAVDKDTLKTLNIERFSLYRPELWYTEMEEDKYEFPETVHIPAGSCVELLNIDFNLQDIDMLEKWVLPLTIVDDGSYAYQSHPRKNYAKALLKVVPFNNYSGSYTASSMKVYTYINGKPDTNARTTDKRTGYVVDNNSIFFYAGLINEDMDKDMRKKYKINVHFKEDGTLDMKQDDPSNEMEFELIGTPTYSSTSVMDATRPYLERRYVQIMFEYDFQDFTYGGSGTEVIPIKYRVAGSMTLLRNINTQIPDEDQQIEW,glycan array binding signal (z-score),[36],-0.272
same,glycan array binding signal (z-score),[37],-0.427
